This is an account of results in US20020177554A1 (Akzo Nobel N.V., priority 1995, published 2002).

Plain letter strings leave the end groups untold. One purity is given for all peptides; the source may state it once.

The series can be described thus: general procedure: Fmoc solid-phase peptide synthesis; PEG-PS; Fmoc/tBu protected activated esters. The note with it: whole synthesis, reverse phase HPLC, acetate or chloride salts.
Take AGWLADRSVRYPI: the “final HPLC purity” value is listed as greater than 90%.

With AGWLSDGSVQYPI, the “final HPLC purity” value is given as greater than 90%. With AGWLADGSLRYPI the figure was greater than 90%.

Consider PKFVKQNTLKLAT, for which the “final HPLC purity” value is on record as greater than 90%.
